This is one part of the list.
Each target was assayed with CC1Cc2ccccc2N1C(=O)C1CCCN(C1)C(=O)CCl (mixture of isomers) [TRIM25 ligand 11 (diastereomer mixture)] (assay: probe-labelled cysteine peptide fold change vs DMSO (competition) (log2 fold change); higher = less target engagement (more negative = stronger competition)). Conditions: 10 µM; THP-1; incubation time: 4 h.
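Further: competitive chemoproteomic profiling in live THP-1 cells with an iodoacetamide desthiobiotin (IA-DTB) probe, comparing probe-labelled peptide intensities in compound-treated cells against DMSO-treated controls.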

Chains of the proteins cited; added tags and fusions are not shown. Lines headed by an entry give the natural chain unless they say otherwise; changes in a name come on top.
UniProt P56182: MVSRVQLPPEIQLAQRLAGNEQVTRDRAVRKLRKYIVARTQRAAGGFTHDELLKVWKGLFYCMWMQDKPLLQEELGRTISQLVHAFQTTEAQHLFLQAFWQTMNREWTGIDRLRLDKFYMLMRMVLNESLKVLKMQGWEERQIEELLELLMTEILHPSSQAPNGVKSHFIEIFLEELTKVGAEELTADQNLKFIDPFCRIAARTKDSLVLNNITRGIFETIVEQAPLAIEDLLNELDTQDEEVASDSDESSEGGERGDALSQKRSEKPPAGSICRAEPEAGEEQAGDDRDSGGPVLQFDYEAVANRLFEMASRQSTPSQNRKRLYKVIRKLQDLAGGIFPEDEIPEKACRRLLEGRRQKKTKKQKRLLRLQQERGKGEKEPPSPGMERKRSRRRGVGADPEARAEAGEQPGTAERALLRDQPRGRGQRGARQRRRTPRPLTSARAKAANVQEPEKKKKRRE
UniProt Q5K651: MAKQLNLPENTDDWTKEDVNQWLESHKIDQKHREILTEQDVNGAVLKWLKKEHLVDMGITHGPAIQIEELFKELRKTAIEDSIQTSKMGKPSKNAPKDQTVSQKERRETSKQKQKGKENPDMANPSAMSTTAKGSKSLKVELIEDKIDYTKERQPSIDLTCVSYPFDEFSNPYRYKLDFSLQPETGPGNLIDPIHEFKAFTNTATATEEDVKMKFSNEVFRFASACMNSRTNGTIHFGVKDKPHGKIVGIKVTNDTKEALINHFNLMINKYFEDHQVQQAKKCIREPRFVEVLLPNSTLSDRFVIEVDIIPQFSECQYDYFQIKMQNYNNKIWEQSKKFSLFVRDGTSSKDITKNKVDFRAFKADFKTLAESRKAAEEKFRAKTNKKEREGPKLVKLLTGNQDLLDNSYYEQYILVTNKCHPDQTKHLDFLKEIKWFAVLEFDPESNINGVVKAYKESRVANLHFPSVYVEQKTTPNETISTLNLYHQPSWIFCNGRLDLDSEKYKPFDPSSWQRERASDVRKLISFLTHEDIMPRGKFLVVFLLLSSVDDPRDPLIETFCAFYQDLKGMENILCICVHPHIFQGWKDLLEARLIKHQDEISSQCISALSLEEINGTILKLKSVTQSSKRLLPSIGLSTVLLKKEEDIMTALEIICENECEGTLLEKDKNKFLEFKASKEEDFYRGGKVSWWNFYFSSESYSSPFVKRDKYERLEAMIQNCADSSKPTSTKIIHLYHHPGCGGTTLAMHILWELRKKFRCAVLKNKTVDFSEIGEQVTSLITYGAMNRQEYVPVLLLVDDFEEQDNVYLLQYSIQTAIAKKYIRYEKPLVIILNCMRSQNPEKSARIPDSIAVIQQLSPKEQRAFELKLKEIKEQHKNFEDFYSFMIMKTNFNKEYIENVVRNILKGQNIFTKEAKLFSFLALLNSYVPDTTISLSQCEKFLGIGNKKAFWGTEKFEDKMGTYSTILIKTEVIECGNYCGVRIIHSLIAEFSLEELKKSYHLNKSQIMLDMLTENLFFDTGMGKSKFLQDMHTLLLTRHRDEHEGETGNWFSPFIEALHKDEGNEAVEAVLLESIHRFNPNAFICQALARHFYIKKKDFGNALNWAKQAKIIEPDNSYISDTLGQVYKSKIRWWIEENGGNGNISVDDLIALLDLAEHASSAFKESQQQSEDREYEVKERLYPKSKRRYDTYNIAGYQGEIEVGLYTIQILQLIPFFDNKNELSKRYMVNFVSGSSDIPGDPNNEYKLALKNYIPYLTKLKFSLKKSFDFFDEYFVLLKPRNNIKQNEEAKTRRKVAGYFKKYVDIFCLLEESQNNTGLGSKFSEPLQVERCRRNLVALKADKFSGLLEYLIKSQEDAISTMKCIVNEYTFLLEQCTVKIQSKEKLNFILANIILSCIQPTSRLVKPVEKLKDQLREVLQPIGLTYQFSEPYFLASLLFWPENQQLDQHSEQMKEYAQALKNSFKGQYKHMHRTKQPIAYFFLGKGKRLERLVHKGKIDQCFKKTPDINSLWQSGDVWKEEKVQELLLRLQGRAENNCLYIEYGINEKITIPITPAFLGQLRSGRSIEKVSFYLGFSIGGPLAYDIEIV
UniProt Q8IZ73: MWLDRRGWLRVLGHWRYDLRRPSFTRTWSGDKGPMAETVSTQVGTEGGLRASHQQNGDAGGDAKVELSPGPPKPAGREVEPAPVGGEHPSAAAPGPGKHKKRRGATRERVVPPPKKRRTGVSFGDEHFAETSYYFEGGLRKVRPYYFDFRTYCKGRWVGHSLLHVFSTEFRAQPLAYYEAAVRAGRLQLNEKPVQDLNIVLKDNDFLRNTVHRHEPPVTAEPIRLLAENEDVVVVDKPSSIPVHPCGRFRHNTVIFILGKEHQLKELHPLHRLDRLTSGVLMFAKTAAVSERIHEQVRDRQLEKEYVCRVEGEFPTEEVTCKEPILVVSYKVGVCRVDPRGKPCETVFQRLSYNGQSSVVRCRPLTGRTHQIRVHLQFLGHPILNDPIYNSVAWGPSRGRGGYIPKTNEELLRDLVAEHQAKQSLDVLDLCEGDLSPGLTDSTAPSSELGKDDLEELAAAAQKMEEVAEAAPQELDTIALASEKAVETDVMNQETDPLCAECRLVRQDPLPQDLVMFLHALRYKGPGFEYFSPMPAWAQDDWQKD
UniProt Q9Y230, whole entry, looked up: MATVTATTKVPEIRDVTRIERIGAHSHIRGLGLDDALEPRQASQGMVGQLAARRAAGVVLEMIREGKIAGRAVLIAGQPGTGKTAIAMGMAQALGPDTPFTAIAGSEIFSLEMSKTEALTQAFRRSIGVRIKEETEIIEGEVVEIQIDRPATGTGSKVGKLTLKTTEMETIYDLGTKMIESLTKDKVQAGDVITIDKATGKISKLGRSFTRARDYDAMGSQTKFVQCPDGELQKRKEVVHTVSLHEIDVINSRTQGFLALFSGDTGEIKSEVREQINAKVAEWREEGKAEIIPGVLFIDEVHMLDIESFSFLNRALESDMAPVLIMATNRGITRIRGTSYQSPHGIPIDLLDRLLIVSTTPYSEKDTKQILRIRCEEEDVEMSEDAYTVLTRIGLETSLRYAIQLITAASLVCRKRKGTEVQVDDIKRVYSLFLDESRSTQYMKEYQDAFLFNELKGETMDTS
UniProt Q5JTH9: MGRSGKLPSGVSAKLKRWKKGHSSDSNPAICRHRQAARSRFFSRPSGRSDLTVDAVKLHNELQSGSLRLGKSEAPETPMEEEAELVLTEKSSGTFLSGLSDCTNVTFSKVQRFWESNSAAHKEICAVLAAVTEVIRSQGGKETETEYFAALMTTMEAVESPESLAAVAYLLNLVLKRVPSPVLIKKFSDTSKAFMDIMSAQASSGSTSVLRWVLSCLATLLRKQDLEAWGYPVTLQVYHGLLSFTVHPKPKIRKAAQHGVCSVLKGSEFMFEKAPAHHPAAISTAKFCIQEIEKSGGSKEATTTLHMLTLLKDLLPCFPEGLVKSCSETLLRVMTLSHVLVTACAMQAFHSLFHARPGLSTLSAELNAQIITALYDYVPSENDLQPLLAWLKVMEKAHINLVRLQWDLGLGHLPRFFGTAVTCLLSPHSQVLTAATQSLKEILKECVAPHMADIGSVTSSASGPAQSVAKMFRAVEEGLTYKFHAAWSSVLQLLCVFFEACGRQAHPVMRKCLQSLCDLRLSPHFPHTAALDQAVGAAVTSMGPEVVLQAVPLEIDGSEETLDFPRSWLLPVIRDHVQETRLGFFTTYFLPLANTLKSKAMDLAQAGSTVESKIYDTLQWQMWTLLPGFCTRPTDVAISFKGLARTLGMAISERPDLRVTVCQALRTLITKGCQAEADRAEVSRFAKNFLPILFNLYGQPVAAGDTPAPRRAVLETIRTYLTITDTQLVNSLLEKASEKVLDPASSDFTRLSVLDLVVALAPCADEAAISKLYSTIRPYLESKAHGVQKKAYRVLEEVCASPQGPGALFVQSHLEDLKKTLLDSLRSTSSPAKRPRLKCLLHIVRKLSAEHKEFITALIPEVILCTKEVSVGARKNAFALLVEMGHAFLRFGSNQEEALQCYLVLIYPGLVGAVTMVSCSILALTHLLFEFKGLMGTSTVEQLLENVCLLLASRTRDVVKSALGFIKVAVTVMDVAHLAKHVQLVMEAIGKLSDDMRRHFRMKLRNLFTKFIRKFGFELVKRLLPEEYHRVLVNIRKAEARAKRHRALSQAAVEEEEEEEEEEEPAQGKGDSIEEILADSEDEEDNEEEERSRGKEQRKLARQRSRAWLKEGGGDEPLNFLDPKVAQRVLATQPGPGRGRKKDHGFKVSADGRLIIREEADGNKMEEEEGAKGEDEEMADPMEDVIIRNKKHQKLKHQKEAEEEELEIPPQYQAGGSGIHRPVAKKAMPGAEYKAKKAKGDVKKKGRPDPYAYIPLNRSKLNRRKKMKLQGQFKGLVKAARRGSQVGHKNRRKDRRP
UniProt Q96ER3: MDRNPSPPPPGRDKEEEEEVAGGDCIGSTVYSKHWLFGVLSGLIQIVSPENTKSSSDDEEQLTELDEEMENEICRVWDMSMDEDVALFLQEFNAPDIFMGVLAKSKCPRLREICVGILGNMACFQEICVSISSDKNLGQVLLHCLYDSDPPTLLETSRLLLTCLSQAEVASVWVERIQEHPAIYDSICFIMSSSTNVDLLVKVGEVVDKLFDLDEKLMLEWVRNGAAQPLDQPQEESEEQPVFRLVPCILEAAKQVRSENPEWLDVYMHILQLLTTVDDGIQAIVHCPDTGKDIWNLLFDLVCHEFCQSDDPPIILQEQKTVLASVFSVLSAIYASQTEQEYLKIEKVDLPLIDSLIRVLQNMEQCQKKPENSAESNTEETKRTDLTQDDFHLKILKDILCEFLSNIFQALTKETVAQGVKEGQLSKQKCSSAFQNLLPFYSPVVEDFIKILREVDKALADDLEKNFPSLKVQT
UniProt Q8N122, whole entry, looked up: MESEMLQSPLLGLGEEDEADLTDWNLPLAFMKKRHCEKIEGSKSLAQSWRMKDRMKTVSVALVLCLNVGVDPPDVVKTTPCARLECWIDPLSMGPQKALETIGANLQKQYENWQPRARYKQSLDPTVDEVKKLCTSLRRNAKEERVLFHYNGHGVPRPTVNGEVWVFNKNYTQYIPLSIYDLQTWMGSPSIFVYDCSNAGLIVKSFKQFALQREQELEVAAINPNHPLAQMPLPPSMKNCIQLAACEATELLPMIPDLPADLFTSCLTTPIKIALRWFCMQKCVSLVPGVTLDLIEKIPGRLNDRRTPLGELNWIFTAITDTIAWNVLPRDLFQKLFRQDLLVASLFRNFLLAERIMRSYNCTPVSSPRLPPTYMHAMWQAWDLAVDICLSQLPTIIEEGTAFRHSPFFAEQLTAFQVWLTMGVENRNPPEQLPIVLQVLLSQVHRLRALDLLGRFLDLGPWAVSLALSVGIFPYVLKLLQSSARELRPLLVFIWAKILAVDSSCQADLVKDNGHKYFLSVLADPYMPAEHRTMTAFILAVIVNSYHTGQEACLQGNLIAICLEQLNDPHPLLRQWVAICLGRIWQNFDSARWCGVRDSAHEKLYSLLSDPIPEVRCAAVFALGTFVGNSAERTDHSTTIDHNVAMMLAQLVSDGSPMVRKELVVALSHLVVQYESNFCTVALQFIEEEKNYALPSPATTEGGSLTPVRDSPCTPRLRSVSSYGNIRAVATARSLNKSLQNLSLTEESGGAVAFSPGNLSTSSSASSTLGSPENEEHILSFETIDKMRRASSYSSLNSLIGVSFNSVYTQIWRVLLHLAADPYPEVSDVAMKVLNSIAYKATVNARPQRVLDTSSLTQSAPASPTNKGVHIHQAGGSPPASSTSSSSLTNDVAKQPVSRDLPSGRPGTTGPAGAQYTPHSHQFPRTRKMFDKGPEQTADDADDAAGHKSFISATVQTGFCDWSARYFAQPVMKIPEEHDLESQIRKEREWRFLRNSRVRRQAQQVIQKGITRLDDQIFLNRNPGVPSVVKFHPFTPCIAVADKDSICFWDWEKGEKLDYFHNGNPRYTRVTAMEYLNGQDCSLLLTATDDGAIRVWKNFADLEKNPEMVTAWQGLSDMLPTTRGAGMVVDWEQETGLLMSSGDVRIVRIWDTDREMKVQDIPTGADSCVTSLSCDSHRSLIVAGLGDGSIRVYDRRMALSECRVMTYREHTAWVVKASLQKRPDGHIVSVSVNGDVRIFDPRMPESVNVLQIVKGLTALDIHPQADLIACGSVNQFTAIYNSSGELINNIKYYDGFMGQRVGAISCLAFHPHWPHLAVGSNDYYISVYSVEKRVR
UniProt O75818: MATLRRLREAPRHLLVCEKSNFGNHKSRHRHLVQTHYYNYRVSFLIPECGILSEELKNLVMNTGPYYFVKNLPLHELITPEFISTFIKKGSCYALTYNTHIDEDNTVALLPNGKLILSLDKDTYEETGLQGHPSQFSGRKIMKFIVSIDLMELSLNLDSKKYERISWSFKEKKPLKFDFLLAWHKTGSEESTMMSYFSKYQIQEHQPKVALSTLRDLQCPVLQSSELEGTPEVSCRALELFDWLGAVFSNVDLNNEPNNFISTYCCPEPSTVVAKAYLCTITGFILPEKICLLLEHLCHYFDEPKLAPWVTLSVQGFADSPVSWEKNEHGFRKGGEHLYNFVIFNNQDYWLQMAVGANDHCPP

Target	probe-labelled cysteine peptide fold change
RPS8_P62241_100_NCIVLIDSTPYR (UniProt P62241)	0.097
RRP1_P56182_198_FIDPFCR (UniProt P56182)	0.148
SAMD9_Q5K651_721_LEAMIQNCADSSKPTSTK (UniProt Q5K651)	-0.0972
RPS27A_P62979_126_RECPSDECGAGVFMASHFDR (UniProt P62979)	-0.117
RPUSD2_Q8IZ73_344_GKPCETVFQR (UniProt Q8IZ73)	0.00255
RUVBL2_Q9Y230_413_YAIQLITAASLVCR (UniProt Q9Y230)	-0.126
RRP12_Q5JTH9_261_AAQHGVCSVLK (UniProt Q5JTH9)	0.068
RPUSD2_Q8IZ73_321_VEGEFPTEEVTCK (UniProt Q8IZ73)	0.159
RSBN1_Q5VWQ0_621_DVICFHAEDFTDVVQR (UniProt Q5VWQ0)	0.0761
RPS12_P25398_106_KVVGCSCVVVK (UniProt P25398)	-0.135
RPS4Y1_P22090_181_FDTGNLCMVIGGANLGR (UniProt P22090)	-0.0672
SAAL1_Q96ER3_144_NLGQVLLHCLYDSDPPTLLETSR (UniProt Q96ER3)	-0.0603
RPTOR_Q8N122_1168+1174_VQDIPTGADSCVTSLSCDSHR (UniProt Q8N122)	0.0692
RPS12_P25398_92_LGEWVGLCK (UniProt P25398)	-0.0631
RPS21_P63220_17_CSASNR (UniProt P63220)	-0.166
RPP40_O75818_235_DLQCPVLQSSELEGTPEVSCR (UniProt O75818)	0.892

Fetched one by one from the entries so far:
Target	probe-labelled cysteine peptide fold change
RPS12_P25398_106_KVVGCSCVVVK (UniProt P25398)	-0.135
RRP12_Q5JTH9_261_AAQHGVCSVLK (UniProt Q5JTH9)	0.068

Reference: the supplement of paper PMC12067093, “Discovery and optimisation of a covalent ligand for TRIM25 and its application to targeted protein ubiquitination” (Chemical Science, 2025)
